Laboratory results as given in publication PMC6377148.

The chains behind the UniProt entries cited, without tags or fusion partners.
UniProt P49336: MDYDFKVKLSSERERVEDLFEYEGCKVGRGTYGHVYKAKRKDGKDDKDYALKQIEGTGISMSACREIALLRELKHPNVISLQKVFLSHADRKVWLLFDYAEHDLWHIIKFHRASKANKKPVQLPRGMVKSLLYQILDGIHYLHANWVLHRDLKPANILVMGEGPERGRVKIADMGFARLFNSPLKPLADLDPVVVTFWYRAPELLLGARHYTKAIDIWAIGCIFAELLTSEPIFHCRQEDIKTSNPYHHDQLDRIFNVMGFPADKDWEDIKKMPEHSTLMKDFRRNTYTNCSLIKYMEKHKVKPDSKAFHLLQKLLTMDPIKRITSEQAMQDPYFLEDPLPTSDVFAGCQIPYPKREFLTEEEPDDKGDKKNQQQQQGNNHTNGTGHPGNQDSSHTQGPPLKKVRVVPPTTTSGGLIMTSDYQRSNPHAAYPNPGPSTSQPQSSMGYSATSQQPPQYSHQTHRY
UniProt Q9BWU1: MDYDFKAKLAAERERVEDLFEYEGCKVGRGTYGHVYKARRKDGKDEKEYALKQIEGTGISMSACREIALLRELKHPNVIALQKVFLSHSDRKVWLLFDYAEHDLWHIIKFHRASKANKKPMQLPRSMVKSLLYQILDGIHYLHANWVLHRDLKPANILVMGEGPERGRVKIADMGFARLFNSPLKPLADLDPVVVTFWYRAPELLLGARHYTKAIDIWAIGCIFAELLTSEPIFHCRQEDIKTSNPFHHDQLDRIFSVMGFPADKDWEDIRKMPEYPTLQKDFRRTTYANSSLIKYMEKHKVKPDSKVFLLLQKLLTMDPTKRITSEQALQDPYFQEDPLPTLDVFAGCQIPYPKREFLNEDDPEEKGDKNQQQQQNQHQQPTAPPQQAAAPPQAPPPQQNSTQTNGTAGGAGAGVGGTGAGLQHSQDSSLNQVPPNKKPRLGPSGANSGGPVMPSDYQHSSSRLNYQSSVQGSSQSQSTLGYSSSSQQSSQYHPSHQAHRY

T1: MTBP-Flag-GFP purified for mass spectrometry (human) (UniProt Q96DY7)
T1 sequence: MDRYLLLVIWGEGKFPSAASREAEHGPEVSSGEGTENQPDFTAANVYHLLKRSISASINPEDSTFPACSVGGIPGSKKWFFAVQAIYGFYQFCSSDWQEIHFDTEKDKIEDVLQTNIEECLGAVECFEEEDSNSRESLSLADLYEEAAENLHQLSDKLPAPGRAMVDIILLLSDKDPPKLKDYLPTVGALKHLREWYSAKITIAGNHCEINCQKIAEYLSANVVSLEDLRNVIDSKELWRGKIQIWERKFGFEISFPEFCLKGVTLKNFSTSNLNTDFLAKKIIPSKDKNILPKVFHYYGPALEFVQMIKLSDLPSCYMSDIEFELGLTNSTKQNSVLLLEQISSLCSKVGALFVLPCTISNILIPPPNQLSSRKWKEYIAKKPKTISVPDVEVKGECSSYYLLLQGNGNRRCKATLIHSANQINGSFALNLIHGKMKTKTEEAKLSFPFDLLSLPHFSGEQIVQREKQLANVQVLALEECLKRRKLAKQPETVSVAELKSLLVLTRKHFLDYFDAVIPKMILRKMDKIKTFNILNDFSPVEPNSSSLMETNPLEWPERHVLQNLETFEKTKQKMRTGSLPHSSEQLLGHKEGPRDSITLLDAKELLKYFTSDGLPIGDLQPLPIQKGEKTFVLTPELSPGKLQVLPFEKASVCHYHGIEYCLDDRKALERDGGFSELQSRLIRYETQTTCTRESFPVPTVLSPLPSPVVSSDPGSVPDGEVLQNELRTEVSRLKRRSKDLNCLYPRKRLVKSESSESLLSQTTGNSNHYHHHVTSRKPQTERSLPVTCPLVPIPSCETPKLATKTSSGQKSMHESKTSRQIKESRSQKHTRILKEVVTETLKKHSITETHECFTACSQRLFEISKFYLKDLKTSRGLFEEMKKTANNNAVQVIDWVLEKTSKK

B1: cyclin C, endogenous (protein, UniProt P24863 1-283)
chain: MAGNFWQSSHYLQWILDKQDLLKERQKDLKFLSEEEYWKLQIFFTNVIQALGEHLKLRQQVIATATVYFKRFYARYSLKSIDPVLMAPTCVFLASKVEEFGVVSNTRLIAAATSVLKTRFSYAFPKEFPYRMNHILECEFYLLELMDCCLIVYHPYRPLLQYVQDMGQEDMLLPLAWRIVNDTYRTDLCLLYPPFMIALACLHVACVVQQKDARQWFAELSVDMEKILEIIRVILKLYEQWKNFDERKEMATILSKMPKPKPPPNSEGEQGPNGSQNSSYSQS

molecular target: T1, MTBP-Flag-GFP purified for mass spectrometry (human); assay: affinity purification with mass spectrometry; purification of MTBP-Flag-GFP and mass spectrometry; cells and conditions not told

Molecule | binding
Cdk8 (cyclin-dependent kinase 8), endogenous (from UniProt P49336 1-464) (enzyme) | binds
Cdk19 (cyclin-dependent kinase 19), endogenous (from UniProt Q9BWU1 1-502) (enzyme) | binds
B1 | binds

No constants are given. Whether binding was seen depends on the method and setting. Binding seen in cells or lysates may run through a third protein. Here binding means that the protein was enriched with, or labelled near, the bait; the list need not be complete. Tags and fused reporters may be left off the sequences shown.
